Data source: PubChem BioAssay AID1159578 (Peter MacCallum Cancer Centre, 2015)

Screen: 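Knock-downs that alter how fast lymphatic endothelial cells migrate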 (primary screen)
Cell system: human lymphatic endothelial cells
Reagents: siRNA pool against human genes, 40 nM
Time to read-out: 48 h after transfection
Read-out: 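High-content imaging of dye-stained cells in a scratch assay measures filled wound area and nuclei per well; duplicate means given as ratio to mock and robust z-score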
Reading the numbers: migration robust z-score: higher = faster migration into the scratch; nuclei per well: higher = more cells in the well
Call rule: 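Migration changed when robust z exceeds 2 or falls below -2 and mean nuclei number is at least 3300; otherwise not called changed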
Meaning of the calls: active = migration changed; inactive = no migration change, or too few cells
In all, the deposit lists about 18,000 reagents; this is a part drawn at random. About 1,030 of them (5.7%) count as active. 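Inactive calls also include pools with fewer than 3300 nuclei, whose migration was not assessed.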 Raw values vary from plate to plate and are shown uncorrected. Entries without a mark were called inactive. Not all columns of the deposit are shown.

The first 6 entries as a preview:
gene,migration robust z-score,"nuclei per well, duplicate mean"
TRMT112 (GeneID 51504),-0.14,5908
LINGO2 (GeneID 158038),0.5,6232
POGLUT2 (GeneID 79070),-1.17,5129
ALOXE3 (GeneID 59344),0.44,5183
CD86 (GeneID 942),1.92,5196
TXNL1 (GeneID 9352),-0.39,6246

The list itself, from the first entry:
gene,migration robust z-score,"nuclei per well, duplicate mean"
TRMT112 (GeneID 51504),-0.14,5908
LINGO2 (GeneID 158038),0.5,6232
POGLUT2 (GeneID 79070),-1.17,5129
ALOXE3 (GeneID 59344),0.44,5183
CD86 (GeneID 942),1.92,5196
TXNL1 (GeneID 9352),-0.39,6246
SCIMP (GeneID 388325),1.48,6194
CPLANE1 (GeneID 65250),-0.64,6738
GCG (GeneID 2641),0.58,5429
KRT80 (GeneID 144501),-3.77 (active),6152
ROR2 (GeneID 4920),-0.16,6626
DCBLD1 (GeneID 285761),1.55,5437
PISD (GeneID 23761),-1.36,4210
OR5H14 (GeneID 403273),-0.15,3870
ATRNL1 (GeneID 26033),0.64,6236
CIAO2A (GeneID 84191),0.05,6096
OR1B1 (GeneID 347169),0.07,5350
SLC7A2 (GeneID 6542),0.06,5618
JAK3 (GeneID 3718),-0.05,3799
PTH2R (GeneID 5746),0.91,5468
GDF7 (GeneID 151449),0.05,5051
LSP1 (GeneID 4046),-0.79,5832
KCNN4 (GeneID 3783),0.54,5445
RTL5 (GeneID 340526),1.5,6668
MGAT1 (GeneID 4245),0.78,5460
PHKB (GeneID 5257),0.03,4914
RMDN3 (GeneID 55177),-0.24,6085
TNFSF12-TNFSF13 (GeneID 407977),0.67,5702
LRTM2 (GeneID 654429),1.51,5694
AFF4 (GeneID 27125),0.02,5784
GRK4 (GeneID 2868),-1.4,5466
IPMK (GeneID 253430),0.78,5100
CWF19L1 (GeneID 55280),0.24,5562
ATP13A4 (GeneID 84239),-0.46,6415
PKNOX2 (GeneID 63876),-0.16,5884
KLHL6 (GeneID 89857),-0.18,6676
UGT1A3 (GeneID 54659),-0.68,5620
ATP5MK (GeneID 84833),-0.44,6630
SUN2 (GeneID 25777),0.18,5659
ATP6V0A1 (GeneID 535),0.13,6756
MYBPC2 (GeneID 4606),0.03,6245
SLC25A32 (GeneID 81034),0.44,5959
IL4I1 (GeneID 259307),-1.32,5472
GSDMD (GeneID 79792),-1.44,5922
RGS17 (GeneID 26575),-0.94,5440
GOLGA6B (GeneID 55889),1.71,6044
PHF12 (GeneID 57649),0,6078
CACNG4 (GeneID 27092),0.42,4786
LRRC17 (GeneID 10234),-0.9,5834
PKP1 (GeneID 5317),0.18,5206
SHISA4 (GeneID 149345),-0.5,6398
FKBP1A (GeneID 2280),-1.22,5498
C4orf50 (GeneID 389197),-0.78,5892
ROCK2 (GeneID 9475),-0.02,5218
SRSF1 (GeneID 6426),-3.48 (active),3383
SMYD2 (GeneID 56950),-1.06,6669
CCL20 (GeneID 6364),0.05,5983
